These are yes or no findings as the source states them, for the method shown. Binding calls can cover weak binding; strength is not graded here.
Columns and labels:
Test in all cases: ELISA; microtiter plates coated with non-denatured HcpA or deletion mutants (1 µg/ml), incubated with CFH (10 µg/ml) or PLG (20 µg/ml) for 1 h at RT; goat anti-CFH or goat anti-PLG; both purified
[1] = target: T1, HcpA deletion mutant, residues 78-175 (B. recurrentis A1) (UniProt C1L349)
T1 sequence: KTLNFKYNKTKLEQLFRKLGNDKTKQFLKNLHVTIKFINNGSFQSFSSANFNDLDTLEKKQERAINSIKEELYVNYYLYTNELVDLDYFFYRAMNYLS

[2] = target: T2, HcpA deletion mutant, residues 48-175 (B. recurrentis A1) (UniProt C1L349)
T2 sequence: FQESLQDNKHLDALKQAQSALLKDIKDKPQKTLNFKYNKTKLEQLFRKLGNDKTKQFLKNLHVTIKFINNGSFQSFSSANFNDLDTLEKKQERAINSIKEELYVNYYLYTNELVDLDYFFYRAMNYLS

[3] = target: T3, HcpA deletion mutant, residues 18-145 (B. recurrentis A1) (UniProt C1L349)
T3 sequence: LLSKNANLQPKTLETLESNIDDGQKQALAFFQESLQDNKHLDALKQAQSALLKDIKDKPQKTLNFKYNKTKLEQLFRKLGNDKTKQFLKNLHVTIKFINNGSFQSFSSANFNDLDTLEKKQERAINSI

[4] = target: T4, HcpA deletion mutant, residues 18-115 (B. recurrentis A1) (UniProt C1L349)
T4 sequence: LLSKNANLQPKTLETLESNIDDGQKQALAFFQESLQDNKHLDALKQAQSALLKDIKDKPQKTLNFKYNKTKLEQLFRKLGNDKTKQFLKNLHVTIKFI

Measured: binding

human plasminogen
binds: all assays above

From paper PMC2654920, “Borrelia recurrentis Employs a Novel Multifunctional Surface Protein with Anti-Complement, Anti-Opsonic and Invasive Potential to Escape Innate Immunity” (PLoS ONE, 2009)
